# Reference: patent publication US20160303189A1, “Applications of Recombined Ganoderma Lucidum Immunoregulation Protein in Preparing Drugs for Treating Tissue Fibrosis” (priority 2014, published 2016)
# For at least one compound, name, drawing or mass did not settle the structure.
# Tested on: Dox-induced myocardial damage
# Assay: Treatment effect of rLZ-8 on Dox-induced myocardial damage in mice
# Format: in vivo
# Settings: fosinopril sodium tablets 10 mg/kg, week 7
# Description: Experiment grouping: there were 8 experimental groups, 10 mice/per group, saline group (Group A), model group (Group B), rLZ-8 3 μg/kg (Group C), rLZ-8 6 μg/kg(Group D), rLZ-8 12 μg/kg (Group E), rLZ-8 24 μg/kg (Group F), rLZ-8 48 μg/kg (Group G) and positive control group (Group H).
# Treating process: The model making process was the same as embodiment 3. The models for groups B, C, D, E, F, G and H were made with 3 mg/kg Dox, and then as control groups, Groups A and B were given intraperitoneal injection of saline once every day, and Groups C, D, E, G and H were treated with rLZ-8, intravenous injection once every 2 days. The mice were weighed every 3 days and drugs were delivered in accordance with weights. […]
# Experiment records: The deaths of the mice were recorded at 9:00 and 17:00 every day and activities of the mice were closely watched. […]
# Experimental results: In order to examine myocardial fibrosis grades of the mice and myocardial fibrosis status, in the seventh week, samples were taken according to the mortality rates. […] The myocardial tissue of the mice was Masson stained and was photographed under 20 times 40 times microscopes and statistics were recorded.
smiles,measurement,setting,value
CCC(=O)O[C@@H](O[P@](=O)(CCCCc1ccccc1)CC(=O)N1C[C@H](C2CCCCC2)C[C@H]1C(=O)O)C(C)C [fosinopril sodium],mice showing ++ grade perivascular fibrosis and ++ grade interstitial fibrosis,positive control group (7 mice),one
same,mice showing + grade perivascular fibrosis and + grade interstitial fibrosis,positive control group,one out of 7
